No constants are given. Whether binding was seen depends on the method and setting. In cells and extracts the contact can be indirect. A yes stands for co-enrichment or nearness to the bait. Other partners may have been found. Sequences can lack the tags named with a protein.
Target: T1, Flag-ATG4B (UniProt Q9Y4P1)
T1 sequence: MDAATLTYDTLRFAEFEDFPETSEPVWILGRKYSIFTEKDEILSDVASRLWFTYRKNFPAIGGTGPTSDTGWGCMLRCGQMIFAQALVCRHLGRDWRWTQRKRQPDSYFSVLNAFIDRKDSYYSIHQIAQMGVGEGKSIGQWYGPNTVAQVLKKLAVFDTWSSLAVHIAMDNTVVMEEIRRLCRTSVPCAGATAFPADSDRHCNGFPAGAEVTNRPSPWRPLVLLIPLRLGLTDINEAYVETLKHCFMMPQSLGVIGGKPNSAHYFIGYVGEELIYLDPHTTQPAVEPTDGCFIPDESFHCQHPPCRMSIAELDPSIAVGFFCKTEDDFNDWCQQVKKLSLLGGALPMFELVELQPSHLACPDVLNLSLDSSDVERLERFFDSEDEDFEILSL
Experiment: affinity purification with mass spectrometry; co-immunoprecipitation from cells stably expressing Flag-ATG4B combined with mass spectrometry

Sequences of proteins named here, by UniProt entry; tags and fusion partners are left off.
UniProt Q99873: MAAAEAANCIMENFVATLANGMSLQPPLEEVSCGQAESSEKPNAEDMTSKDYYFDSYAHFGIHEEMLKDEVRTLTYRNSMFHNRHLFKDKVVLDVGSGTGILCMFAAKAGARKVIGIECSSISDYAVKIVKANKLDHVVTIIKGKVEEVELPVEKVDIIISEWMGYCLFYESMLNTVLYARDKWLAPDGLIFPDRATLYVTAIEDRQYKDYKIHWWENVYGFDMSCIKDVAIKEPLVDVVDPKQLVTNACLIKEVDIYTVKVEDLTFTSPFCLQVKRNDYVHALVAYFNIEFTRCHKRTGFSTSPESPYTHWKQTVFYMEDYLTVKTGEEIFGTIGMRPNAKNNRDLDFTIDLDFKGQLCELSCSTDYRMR

binding: binds
Substance: PRMT1 (endogenous) (from UniProt Q99873 1-371)
